The values that follow come from PubChem BioAssay AID192 (DTP/NCI, 2004).

Molecules are shown by their SMILES. The list is a part of this screen's results and no random one: it gathers tests that were run many times, whatever their T/C, doses with no T/C, and many T/C values between a quarter and a half above the control. Further doses and runs are listed elsewhere. T/C: endpoint of the treated group in % of that of the vehicle group. Some doses have a count of surviving animals in place of a T/C: the source files T/C as zero there, which appears to mark a toxic dose or a test without result, not a measured value. Some doses without a T/C left all or most animals alive at the check, yet need not have been tolerated: survival well below the control is almost never listed, so the zero probably covers shortened survival too. Survivors were counted at the toxicity check, usually on the fifth day, unless a day is given; later deaths do not show. Schedule codes are those of the source, read here as Q, the interval in days (D) or hours (H), X, the number of doses. Some entries were tested several times; the values are given in rising order. Where survival is the endpoint, the PubChem record calls one and a half times the control and up active, and a quarter to a half above the control has no call in these data; cut-offs in other NCI protocols can differ. Some T/C values carry the count of animals alive at the toxicity check (mostly the fifth day); without a count, all were alive then. Numbered stars: 1 amine (or outer) side, 2 acyl side, 3 side chain; on linkers, the order of the positions; unused ones are H or OH. Bridge positions count the residues as written; N and C are the ends. Square brackets hold non-standard residues; d marks the D form. Peptide text beside a SMILES is read from it. I, II: the chains in the order shown. Actinocin(1to9) = Cc1c2oc3c(C)ccc(C(=O)[*:2])c3nc-2c(C(=O)[*:1])c(N)c1=O; NMeV = CN[CH](C(=O)O)C(C)C; Aze = O=C(O)[CH]1CCN1; Sar = CNCC(=O)O

This experiment deals with BDF1 mice, B16 melanoma ip, median survival T/C. In words: NCI In Vivo Anticancer Drug Screen. Data for tumor model B16 Melanoma (intraperitoneal) in B6D2F1 (BDF1) mice. Conditions: T/C endpoint: median survival time, higher T/C = longer survival. The procedure: The antitumor activity of compounds was measured in mice bearing transplantable tumors. Survival or tumor size were measured and the results are expressed as the measurement made in the treated group (T) divided by the measurement made in the vehicle treated control group (C). The tumor model used in this assay is B16 Melanoma (intraperitoneal) in B6D2F1 (BDF1) mice

Setting [1] is: dose: 150.0 micrograms/kg/injection, schedule: Q01DX009 (ip), vehicle: saline + alcohol.
The mark [2] stands for this setting: dose: 50.0 mg/kg/injection, schedule: Q01DX009 (ip), vehicle: saline with Tween-80.
Where [3] appears, read: dose: 400.0 mg/kg/injection, schedule: Q01DX009 (ip), vehicle: Klucel (hydroxypropylcellulose) (HPC).

In the case of `Cc1c2oc3c(C)ccc(C(=O)NC4C(=O)NC(C(C)C)C(=O)N5CCCC5C(=O)N(C)CC(=O)N(C)C(C(C)C)C(=O)OC4C)c3nc-2c(C(=O)NC2C(=O)NC(C(C)C)C(=O)N3CCC3C(=O)N(C)CC(=O)N(C)C(C(C)C)C(=O)OC2C)c(N)c1=O` (configuration not stated) (I: TV[Aze][Sar][NMeV] / II: TVP[Sar][NMeV]; ester I:1-I:C, II:1-II:C; linker I:N-II:N via Actinocin(1to9); configuration not given here), the T/C is 133 % of control (dose: 0.3 mg/kg/injection, schedule: Q04DX003 (ip), vehicle: saline + alcohol); 130 % of control (dose: 32.4 micrograms/kg/injection, schedule: Q01DX009 (ip), vehicle: saline + alcohol); 127 % of control (dose: 54.0 micrograms/kg/injection, schedule: Q01DX009 (ip), vehicle: saline + alcohol); 142 % of control (dose: 90.0 micrograms/kg/injection, schedule: Q01DX009 (ip), vehicle: saline + alcohol); 149 % of control under setting [1]; 128 % of control (dose: 200.0 micrograms/kg/injection, schedule: Q01DX009 (ip), vehicle: saline + alcohol). Also, the survivor count reads like this: (dose: 0.45 mg/kg/injection, schedule: Q01DX009 (ip), vehicle: saline + alcohol) 10 of 10; (dose: 0.9 mg/kg/injection, schedule: Q01DX009 (ip), vehicle: saline + alcohol) 10 of 10; (dose: 0.9 mg/kg/injection, schedule: Q04DX003 (ip), vehicle: saline + alcohol) 8 of 10 and 10 of 10; (dose: 1.2 mg/kg/injection, schedule: Q04DX003 (ip), vehicle: saline + alcohol) 9 of 10; (dose: 1.8 mg/kg/injection, schedule: Q01DX009 (ip), vehicle: saline + alcohol) 7 of 10; under setting [1], 10 of 10. The survivor count reads like this: (dose: 300.0 micrograms/kg/injection, schedule: Q01DX009 (ip), vehicle: saline + alcohol) 9 of 10; (dose: 417.0 micrograms/kg/injection, schedule: Q01DX009 (ip), vehicle: saline + alcohol) 10 of 10; (dose: 600.0 micrograms/kg/injection, schedule: Q01DX009 (ip), vehicle: saline + alcohol) 1 of 10; (dose: 1200.0 micrograms/kg/injection, schedule: Q01DX009 (ip), vehicle: saline + alcohol) 0 of 10.
Consider `Nc1ccc(N=Nc2ccc(S(=O)(=O)O)cc2)cc1`, for which the survivor count runs as follows: (dose: 200.0 mg/kg/injection, schedule: Q01DX009 (ip), vehicle: saline with Tween-80) 10 of 10; (dose: 400.0 mg/kg/injection, schedule: Q01DX009 (ip), vehicle: saline with Tween-80) 3 of 10.
For the compound `O=C(O)C1CC1.[Ag]`, the survivor count (dose: 25.0 mg/kg/injection, schedule: Q01DX009 (ip), vehicle: water) is 4 of 10.
Consider `O=C1NC(c2ccccc2)N=C2Oc3ccccc3C=C12` (configuration not stated), for which the T/C runs as follows: (dose: 12.5 mg/kg/injection, schedule: Q01DX009 (ip), vehicle: saline with Tween-80) 125 % of control; (dose: 25.0 mg/kg/injection, schedule: Q01DX009 (ip), vehicle: saline with Tween-80) 130 % of control; under setting [2], 144 % of control. Besides, the survivor count was 9 of 10 under setting [2] and 3 of 10 (dose: 100.0 mg/kg/injection, schedule: Q01DX009 (ip), vehicle: saline with Tween-80).
Turning to `CC(C)C1(c2ccsc2)NC(=O)NC1=O` (configuration not stated), the survivor count under setting [3] is recorded as 0 of 10.
`CC(COCc1ccccc1)NCc1ccccc1` (configuration not stated): the survivor count (dose: 100.0 mg/kg/injection, schedule: Q01DX009 (ip), vehicle: Klucel (hydroxypropylcellulose) (HPC)) is listed as 8 of 10.
Turning to `COc1cc(C)c(C2NC(=O)c3ccccc3N2)cc1C` (configuration not stated), under setting [3], the T/C was 130 % of control.
For `CCC1(O)CC2CN(CCc3c([nH]c4ccccc34)C(C(=O)OC)(c3cc4c(cc3OC)N(C)C3C(O)(C(N)=O)C(O)C5(CC)C=CCN6CCC43C65)C2)C1` (configuration not stated) (tested in a mixture with another compound), the T/C is 149 % of control (dose: 0.07 mg/kg/injection, schedule: Q04DX003 (ip), vehicle: saline); 147 % of control [9 of 10 alive] (dose: 0.11 mg/kg/injection, schedule: Q04DX003 (ip), vehicle: saline); 131 % of control [9 of 10 alive] (dose: 0.13 mg/kg/injection, schedule: Q01DX009 (ip), vehicle: water); 139 % of control (dose: 0.22 mg/kg/injection, schedule: Q01DX009 (ip), vehicle: water); 142 % of control (dose: 0.52 mg/kg/injection, schedule: Q04DX003 (ip), vehicle: water); 129 % of control (dose: 1.0 mg/kg/injection, schedule: Q04DX003 (ip), vehicle: saline). Moreover, the T/C reads like this: (dose: 1.0 mg/kg/injection, schedule: Q04DX003 (ip), vehicle: water) 138 % of control; (dose: 1.04 mg/kg/injection, schedule: Q01DX001 (ip), vehicle: water) 145 % of control; (dose: 1.67 mg/kg/injection, schedule: Q04DX003 (ip), vehicle: saline) 125 % of control; (dose: 1.73 mg/kg/injection, schedule: Q01DX001 (ip), vehicle: water) 142 % of control; (dose: 2.0 mg/kg/injection, schedule: Q04DX003 (ip), vehicle: water) 145 % of control; (dose: 2.9 mg/kg/injection, schedule: Q01DX001 (ip), vehicle: water) 147 % of control. The T/C is, setting by setting: (dose: 8.0 mg/kg/injection, schedule: Q01DX001 (ip), vehicle: water) 147 % of control; (dose: 22.0 micrograms/kg/injection, schedule: Q01DX009 (ip), vehicle: saline) 129 % of control; (dose: 36.0 micrograms/kg/injection, schedule: Q01DX009 (ip), vehicle: saline) 142 % of control; (dose: 130.0 micrograms/kg/injection, schedule: Q01DX009 (ip), vehicle: saline) 143 % of control [9 of 10 alive]; (dose: 130.0 micrograms/kg/injection, schedule: Q01DX009 (ip), vehicle: water) 135 % of control; (dose: 360.0 micrograms/kg/injection, schedule: Q01DX009 (ip), vehicle: water) 145 % of control. The T/C runs as follows: (dose: 389.0 micrograms/kg/injection, schedule: Q04DX003 (ip), vehicle: saline) 136 % of control; (dose: 600.0 micrograms/kg/injection, schedule: Q01DX009 (ip), vehicle: water) 140 % of control; (dose: 648.0 micrograms/kg/injection, schedule: Q04DX003 (ip), vehicle: saline) 142 % of control. For the same compound, the survivor count is, setting by setting: (dose: 0.6 mg/kg/injection, schedule: Q01DX009 (ip), vehicle: water) 10 of 10; (dose: 1.0 mg/kg/injection, schedule: Q01DX009 (ip), vehicle: water) 5 of 10 and 9 of 10; (dose: 2.4 mg/kg/injection, schedule: Q04DX003 (ip), vehicle: water) 10 of 10; (dose: 2.78 mg/kg/injection, schedule: Q04DX003 (ip), vehicle: saline) 9 of 10; (dose: 3.0 mg/kg/injection, schedule: Q04DX003 (ip), vehicle: saline) 4 of 10; (dose: 4.0 mg/kg/injection, schedule: Q04DX003 (ip), vehicle: water) 2 of 10 and 10 of 10. Moreover, the survivor count is, setting by setting: (dose: 4.63 mg/kg/injection, schedule: Q04DX003 (ip), vehicle: saline) 9 of 10; (dose: 1000.0 micrograms/kg/injection, schedule: Q01DX009 (ip), vehicle: saline) 8 of 10; (dose: 1000.0 micrograms/kg/injection, schedule: Q01DX009 (ip), vehicle: water) 10 of 10.
